From the supplement of paper PMC10849652
The list shows a part of the results.

Protein sequences, listed by entry. Tags and fused reporters are not part of them. Lines headed by an entry give the natural chain unless they say otherwise; changes in a name come on top.
UniProt Q9NTG7: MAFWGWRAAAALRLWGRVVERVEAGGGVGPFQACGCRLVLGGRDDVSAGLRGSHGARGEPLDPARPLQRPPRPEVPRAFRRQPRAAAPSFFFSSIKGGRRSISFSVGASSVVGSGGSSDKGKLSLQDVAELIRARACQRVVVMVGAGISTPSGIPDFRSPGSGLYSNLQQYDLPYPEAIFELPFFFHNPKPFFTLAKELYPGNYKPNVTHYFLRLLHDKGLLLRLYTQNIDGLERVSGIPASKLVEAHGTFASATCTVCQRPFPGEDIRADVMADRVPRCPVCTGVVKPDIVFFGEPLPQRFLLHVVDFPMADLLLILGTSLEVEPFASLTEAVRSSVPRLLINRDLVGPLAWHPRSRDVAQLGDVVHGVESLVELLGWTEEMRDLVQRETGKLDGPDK
UniProt O15304: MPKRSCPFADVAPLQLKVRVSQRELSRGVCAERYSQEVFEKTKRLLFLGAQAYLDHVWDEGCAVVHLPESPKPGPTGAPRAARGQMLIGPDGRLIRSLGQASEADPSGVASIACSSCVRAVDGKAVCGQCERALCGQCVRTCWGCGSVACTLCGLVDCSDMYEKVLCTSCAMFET
UniProt Q9NP31, whole entry, looked up: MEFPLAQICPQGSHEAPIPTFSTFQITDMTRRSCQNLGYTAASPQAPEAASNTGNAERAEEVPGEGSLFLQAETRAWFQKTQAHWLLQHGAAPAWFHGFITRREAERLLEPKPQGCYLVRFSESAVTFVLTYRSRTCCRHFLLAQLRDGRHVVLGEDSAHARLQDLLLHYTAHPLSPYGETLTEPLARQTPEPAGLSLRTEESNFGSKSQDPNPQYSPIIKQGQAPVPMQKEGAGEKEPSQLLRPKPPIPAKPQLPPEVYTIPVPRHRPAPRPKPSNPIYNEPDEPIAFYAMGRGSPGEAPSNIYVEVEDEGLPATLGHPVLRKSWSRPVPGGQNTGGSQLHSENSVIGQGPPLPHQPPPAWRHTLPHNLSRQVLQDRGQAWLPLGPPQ
UniProt P55822: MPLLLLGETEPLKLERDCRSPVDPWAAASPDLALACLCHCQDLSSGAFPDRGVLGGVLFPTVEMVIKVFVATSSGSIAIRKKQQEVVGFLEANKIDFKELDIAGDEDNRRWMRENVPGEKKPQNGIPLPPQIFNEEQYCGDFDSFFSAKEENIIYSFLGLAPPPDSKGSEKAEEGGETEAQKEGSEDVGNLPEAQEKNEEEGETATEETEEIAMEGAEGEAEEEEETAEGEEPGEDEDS
UniProt Q9Y6P5: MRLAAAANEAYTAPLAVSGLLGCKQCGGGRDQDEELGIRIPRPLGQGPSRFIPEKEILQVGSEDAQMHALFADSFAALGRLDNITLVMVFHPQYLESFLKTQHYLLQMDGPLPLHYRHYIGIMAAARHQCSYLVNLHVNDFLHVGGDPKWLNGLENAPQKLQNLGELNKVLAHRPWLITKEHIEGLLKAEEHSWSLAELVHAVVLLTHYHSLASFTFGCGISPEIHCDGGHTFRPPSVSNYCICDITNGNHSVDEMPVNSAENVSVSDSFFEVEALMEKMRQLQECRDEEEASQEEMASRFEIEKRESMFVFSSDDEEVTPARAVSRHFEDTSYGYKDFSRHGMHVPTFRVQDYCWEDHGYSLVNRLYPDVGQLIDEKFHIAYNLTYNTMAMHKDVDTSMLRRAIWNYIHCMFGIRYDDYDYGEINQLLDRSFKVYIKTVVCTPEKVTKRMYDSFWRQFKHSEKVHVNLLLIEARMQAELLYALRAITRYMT
UniProt Q9H0K1: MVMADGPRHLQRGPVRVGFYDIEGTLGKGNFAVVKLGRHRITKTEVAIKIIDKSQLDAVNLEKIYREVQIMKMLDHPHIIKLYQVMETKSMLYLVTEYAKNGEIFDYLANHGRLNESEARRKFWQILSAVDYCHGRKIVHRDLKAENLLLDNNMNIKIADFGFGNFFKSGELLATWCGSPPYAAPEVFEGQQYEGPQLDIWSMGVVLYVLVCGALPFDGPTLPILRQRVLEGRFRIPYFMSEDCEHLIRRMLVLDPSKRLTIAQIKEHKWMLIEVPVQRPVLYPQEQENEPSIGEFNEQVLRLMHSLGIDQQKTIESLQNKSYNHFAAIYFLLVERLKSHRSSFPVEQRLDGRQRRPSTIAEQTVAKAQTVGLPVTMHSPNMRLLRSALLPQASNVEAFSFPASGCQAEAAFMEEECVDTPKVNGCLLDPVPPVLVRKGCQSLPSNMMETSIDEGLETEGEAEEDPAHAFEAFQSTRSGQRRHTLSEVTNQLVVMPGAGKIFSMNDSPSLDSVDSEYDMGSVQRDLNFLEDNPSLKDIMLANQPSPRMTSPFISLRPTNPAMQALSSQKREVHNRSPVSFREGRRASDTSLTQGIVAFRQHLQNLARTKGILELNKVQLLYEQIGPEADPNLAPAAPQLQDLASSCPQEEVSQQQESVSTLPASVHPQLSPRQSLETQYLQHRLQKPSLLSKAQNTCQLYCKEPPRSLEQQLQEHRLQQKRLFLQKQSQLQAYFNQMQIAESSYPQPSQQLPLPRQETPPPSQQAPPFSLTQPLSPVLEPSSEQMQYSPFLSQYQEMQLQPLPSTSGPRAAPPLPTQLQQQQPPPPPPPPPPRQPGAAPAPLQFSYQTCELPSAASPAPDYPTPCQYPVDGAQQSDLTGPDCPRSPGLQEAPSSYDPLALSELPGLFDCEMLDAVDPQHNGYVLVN
UniProt Q9BRG2: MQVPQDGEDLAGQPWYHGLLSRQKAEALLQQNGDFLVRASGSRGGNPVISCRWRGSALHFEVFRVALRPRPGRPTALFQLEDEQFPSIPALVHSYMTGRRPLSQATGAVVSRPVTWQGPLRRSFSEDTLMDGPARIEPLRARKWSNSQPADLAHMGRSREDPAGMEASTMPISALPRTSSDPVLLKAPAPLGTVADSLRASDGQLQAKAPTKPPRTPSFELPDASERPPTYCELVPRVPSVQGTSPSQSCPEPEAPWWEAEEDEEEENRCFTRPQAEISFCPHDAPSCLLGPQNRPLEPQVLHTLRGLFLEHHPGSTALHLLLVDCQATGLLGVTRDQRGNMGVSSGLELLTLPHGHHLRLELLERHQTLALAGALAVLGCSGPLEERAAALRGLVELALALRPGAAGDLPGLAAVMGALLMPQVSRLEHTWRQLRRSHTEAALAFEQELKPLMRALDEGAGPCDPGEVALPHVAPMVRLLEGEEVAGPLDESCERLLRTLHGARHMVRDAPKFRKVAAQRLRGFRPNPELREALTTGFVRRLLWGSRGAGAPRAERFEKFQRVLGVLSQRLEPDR
UniProt Q96T21: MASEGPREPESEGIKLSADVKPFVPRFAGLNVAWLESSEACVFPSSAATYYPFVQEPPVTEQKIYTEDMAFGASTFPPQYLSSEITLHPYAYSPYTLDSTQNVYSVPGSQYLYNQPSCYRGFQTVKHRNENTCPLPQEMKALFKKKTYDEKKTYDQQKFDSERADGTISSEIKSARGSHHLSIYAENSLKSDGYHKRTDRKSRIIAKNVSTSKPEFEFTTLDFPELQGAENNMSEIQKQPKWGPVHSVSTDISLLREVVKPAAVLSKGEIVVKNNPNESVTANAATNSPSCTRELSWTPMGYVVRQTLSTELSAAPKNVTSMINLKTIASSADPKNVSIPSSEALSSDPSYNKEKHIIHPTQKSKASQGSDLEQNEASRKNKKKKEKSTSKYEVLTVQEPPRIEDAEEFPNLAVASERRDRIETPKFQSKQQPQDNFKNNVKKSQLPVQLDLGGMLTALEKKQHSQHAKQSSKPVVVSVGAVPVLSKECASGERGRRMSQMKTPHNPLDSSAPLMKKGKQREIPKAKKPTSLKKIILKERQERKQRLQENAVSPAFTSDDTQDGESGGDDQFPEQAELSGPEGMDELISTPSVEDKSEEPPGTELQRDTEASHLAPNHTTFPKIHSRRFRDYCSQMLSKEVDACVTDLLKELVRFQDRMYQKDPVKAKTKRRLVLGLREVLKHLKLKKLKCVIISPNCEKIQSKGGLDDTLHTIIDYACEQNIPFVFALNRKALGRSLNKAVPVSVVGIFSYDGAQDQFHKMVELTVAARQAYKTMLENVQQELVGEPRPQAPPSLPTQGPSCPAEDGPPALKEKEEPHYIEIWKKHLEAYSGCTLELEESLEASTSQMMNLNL
UniProt Q8NDZ2: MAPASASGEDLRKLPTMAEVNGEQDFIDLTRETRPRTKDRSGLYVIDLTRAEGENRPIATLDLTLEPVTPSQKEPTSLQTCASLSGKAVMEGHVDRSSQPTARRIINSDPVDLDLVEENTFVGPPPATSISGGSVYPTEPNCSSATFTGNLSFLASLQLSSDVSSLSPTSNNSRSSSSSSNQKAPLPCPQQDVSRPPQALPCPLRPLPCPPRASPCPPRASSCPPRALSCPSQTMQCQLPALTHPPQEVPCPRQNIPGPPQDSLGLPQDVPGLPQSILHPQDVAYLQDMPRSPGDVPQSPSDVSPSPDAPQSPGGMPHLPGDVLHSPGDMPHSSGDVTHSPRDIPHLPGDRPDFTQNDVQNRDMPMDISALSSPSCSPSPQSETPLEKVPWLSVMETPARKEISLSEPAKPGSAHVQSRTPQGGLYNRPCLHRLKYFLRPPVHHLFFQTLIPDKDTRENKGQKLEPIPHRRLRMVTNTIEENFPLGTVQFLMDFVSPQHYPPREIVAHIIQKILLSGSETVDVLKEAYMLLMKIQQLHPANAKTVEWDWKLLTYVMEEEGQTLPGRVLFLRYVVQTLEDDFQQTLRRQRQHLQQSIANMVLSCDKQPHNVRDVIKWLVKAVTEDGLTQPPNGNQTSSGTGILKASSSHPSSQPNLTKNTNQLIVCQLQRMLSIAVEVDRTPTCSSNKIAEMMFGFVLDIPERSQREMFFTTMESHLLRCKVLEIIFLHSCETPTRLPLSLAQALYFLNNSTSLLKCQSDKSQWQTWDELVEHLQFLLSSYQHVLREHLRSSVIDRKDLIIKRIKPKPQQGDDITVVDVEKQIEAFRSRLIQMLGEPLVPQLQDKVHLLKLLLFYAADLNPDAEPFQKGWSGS
UniProt Q8WVK7: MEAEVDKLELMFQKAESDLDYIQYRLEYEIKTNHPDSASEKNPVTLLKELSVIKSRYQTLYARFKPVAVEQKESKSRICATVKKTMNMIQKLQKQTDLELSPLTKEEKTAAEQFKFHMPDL
UniProt Q96LD8: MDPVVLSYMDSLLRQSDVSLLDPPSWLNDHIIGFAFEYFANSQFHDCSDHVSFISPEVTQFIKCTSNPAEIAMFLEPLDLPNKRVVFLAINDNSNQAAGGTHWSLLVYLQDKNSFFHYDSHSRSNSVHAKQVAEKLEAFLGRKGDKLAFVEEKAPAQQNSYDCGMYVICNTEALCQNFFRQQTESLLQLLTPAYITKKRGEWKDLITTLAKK
UniProt P05546: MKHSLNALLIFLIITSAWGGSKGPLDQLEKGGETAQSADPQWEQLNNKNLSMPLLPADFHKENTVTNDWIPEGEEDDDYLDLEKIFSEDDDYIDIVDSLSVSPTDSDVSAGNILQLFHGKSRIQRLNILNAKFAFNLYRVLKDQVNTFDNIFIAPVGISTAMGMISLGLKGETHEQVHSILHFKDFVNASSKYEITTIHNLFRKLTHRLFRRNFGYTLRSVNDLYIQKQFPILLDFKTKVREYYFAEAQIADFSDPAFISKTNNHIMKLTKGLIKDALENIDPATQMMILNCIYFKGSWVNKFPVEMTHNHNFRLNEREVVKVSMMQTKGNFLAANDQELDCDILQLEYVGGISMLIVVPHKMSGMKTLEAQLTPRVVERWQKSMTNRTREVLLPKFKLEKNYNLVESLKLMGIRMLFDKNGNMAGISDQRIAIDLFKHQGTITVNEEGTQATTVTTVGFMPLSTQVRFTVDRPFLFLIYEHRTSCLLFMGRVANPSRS
UniProt O75635: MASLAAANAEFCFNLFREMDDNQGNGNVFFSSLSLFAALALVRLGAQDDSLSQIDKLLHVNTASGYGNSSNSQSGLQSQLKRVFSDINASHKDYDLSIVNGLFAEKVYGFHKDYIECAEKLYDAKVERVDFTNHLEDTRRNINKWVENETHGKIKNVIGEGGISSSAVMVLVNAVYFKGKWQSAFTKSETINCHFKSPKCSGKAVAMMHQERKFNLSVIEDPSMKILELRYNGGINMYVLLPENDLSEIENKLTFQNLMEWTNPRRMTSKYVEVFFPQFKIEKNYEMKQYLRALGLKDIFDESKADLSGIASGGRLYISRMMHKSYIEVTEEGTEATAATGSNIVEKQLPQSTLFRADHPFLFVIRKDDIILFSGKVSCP
UniProt Q9H0F6: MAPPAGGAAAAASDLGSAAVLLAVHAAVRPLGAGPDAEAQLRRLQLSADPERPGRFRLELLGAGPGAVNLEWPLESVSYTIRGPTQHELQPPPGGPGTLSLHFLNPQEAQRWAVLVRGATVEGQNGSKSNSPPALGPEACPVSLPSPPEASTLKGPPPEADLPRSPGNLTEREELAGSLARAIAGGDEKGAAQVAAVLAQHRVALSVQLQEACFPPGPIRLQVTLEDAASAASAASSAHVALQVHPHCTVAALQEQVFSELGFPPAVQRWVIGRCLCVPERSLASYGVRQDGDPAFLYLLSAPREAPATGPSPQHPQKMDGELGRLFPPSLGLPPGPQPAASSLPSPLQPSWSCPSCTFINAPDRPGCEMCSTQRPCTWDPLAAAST

What was measured:
Assay in all cases: log2 fold change, soluble protein after heating vs DMSO (PISA); higher = thermal stabilisation; K562 cells, 10 uM, 30 min; active = over 0.2 and 3.5 SD of the protein, either way, in both replicates (recomputed)
[1] = compound: CCCc1cc(C)[nH]c(=O)c1CNC(=O)c1cc(-c2ccnc(N3CCN(C)CC3)c2)cc2c1cnn2C(C)C
Procedure, shortened: (§1)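 Soluble protein was defined as the supernatant after 21,000xg for 90 min. It came from K562 cells at 2×10^6 cells/mL given 10 μM compound for 30 min, heated in aliquots for 3 min across 48°C-58°C, pooled, and extracted in PBS with 0.5% NP-40 at 4°C, and was quantified by TMTpro 16plex LC-MS/MS with equalised channel sums. Thermal stability against control samples, from duplicates, is reported as log2 fold change.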

[2] = compound: CCN(CC)Cc1ccc2cc(COC(=O)Nc3ccc(C(=O)NO)cc3)ccc2c1 [givinostat]
Procedure, shortened: as §1

[3] = compound: CCn1c(C(=O)N(C2CC2)C2CC2)cc2c3c(ncn3C)c(Nc3cc(C)n(C)n3)nc21
Procedure, shortened: as §1

[4] = compound: CCn1cc(-c2ccnc3[nH]c(-c4cccc(CN(C)C)c4)cc23)c(-c2ccc(NC(=O)N(C)C)cc2)n1
Procedure, shortened: as §1

[5] = compound: CN1CCC(CNc2ccc3ncc(-c4cccc(OC(F)(F)F)c4)n3n2)CC1
Procedure, shortened: as §1

[6] = compound: CC1=C(C=C(C=C1)NC(=O)C2=CC(=CC=C2)N(C)C)NC(=O)C3=CC=C(C=C3)O
Procedure, shortened: as §1

[7] = compound: CC1=NC(=CC=C1)C2=C(N=C(N2)C(C)(C)C)C3=CC4=NC=CN=C4C=C3
Procedure, shortened: as §1

[8] = compound: CCN(CCCOc1ccc2c(Nc3cc(CC(=O)Nc4cccc(F)c4)[nH]n3)ncnc2c1)CCOP(=O)(O)O [barasertib]
Procedure, shortened: as §1

[9] = compound: CC[C@@H]1C(=O)N(C)c2cnc(Nc3ccc(C(=O)NC4CCN(C)CC4)cc3OC)nc2N1C1CCCC1
Procedure, shortened: as §1

[10] = compound: CN(CCOC1=CC=C(C=C1)C[C@H]2C(=O)NC(=O)S2)C3=CC=CC=N3 (racemic) [rosiglitazone]
Procedure, shortened: as §1

[11] = compound: CN1C2=C(C3=C1C(=O)N(N=C3)CC4=CC(=CC=C4)N)SC(=C2)S(=O)C
Procedure, shortened: as §1

[12] = compound: CCCCN(Cc1ccc(C(=O)NO)cc1)C(=O)Nc1ccccc1 [Nexturastat A]
Procedure, shortened: as §1

[13] = compound: CC[C@H](C)[C@@H](C(=O)N[C@@H]([C@@H](C)O)C(=O)N[C@@H](CC(C)C)C(=O)[C@]1(CO1)C)NC(=O)[C@H]([C@@H](C)CC)N(C)C(=O)C [epoxomicin]
Procedure, shortened: as §1

[14] = compound: CCCS(=O)(=O)Nc1ccc(F)c(C(=O)c2c[nH]c3ncc(-c4ccc(Cl)cc4)cc23)c1F [vemurafenib]
Procedure, shortened: as §1

[15] = compound: CN(C)CC(=O)Nc1ccc2[nH]c(=O)c3ccccc3c2c1
Procedure, shortened: as §1

[16] = compound: CC1=CC=C(C=C1)SC2=C3C=C(SC3=CN=C2)C(=O)N
Procedure, shortened: as §1

[17] = compound: CCCS(=O)(=O)Nc1ccc(F)c(C(=O)c2c[nH]c3ncc(Cl)cc23)c1F
Procedure, shortened: as §1

[18] = compound: CC[C@@H]1C(=O)N(C)c2cnc(Nc3ccc(C(=O)N[C@H]4CC[C@H](N5CCN(CC6CC6)CC5)CC4)cc3OC)nc2N1C(C)C [volasertib]
Procedure, shortened: as §1

[19] = compound: CC[C@H](C)N1C=C(C2=C(C=C(C=C21)C3=CN=C(C=C3)N4CCNCC4)C(=O)NCC5=C(C=C(NC5=O)C)C)C
Procedure, shortened: as §1

Measured: log2 fold change

SEPTIN7 isoform 2 (UniProt Q16181)
inactive: [1] -0.067 | [2] 0.035 | [3] -0.037

SETD2 (UniProt Q9BYW2)
inactive: [4] -0.478 | [5] 0.175

SIX5 (UniProt Q8N196)
inactive: [6] -0.039 | [7] -0.047 | [1] 0.021 | [8] -0.107 | [9] -0.055 | [4] 0.034 | [10] 0.077 | [11] -0.06 | [5] -0.037

SERPINA3 (UniProt P01011)
inactive: [12] 0.295 | [9] 0.001 | [13] -0.364

SIRT3 (UniProt Q9NTG7)
inactive: [6] -0.202 | [7] 0.04 | [14] 0.02 | [1] 0.078 | [2] -0.044 | [9] -0.002 | [3] -0.024 | [4] -0.102 | [15] 0.025 | [11] -0.089 | [5] 0.059

SIVA1 (UniProt O15304)
inactive: [12] 0.053 | [13] 0.269

SELENOI (UniProt Q9C0D9)
inactive: [6] 0.016 | [7] 0.243

SH2D2A isoform 2 (UniProt Q9NP31)
inactive: [16] 0.104 | [7] -0.273 | [17] -0.098 | [1] -0.071 | [2] 0.17 | [9] 0.025 | [18] -0.033 | [19] 0.063 | [3] -0.007 | [4] -0.008 | [11] 0.127 | [5] 0.175

SEMA7A (UniProt O75326)
inactive: [6] -0.01 | [12] 0.154 | [14] -0.008 | [13] 0.164 | [4] -0.101 | [15] 0.023 | [5] -0.234

SHROOM1 (UniProt Q2M3G4)
inactive: [6] 0.194 | [16] 0.065 | [12] 0.325 | [17] -0.146 | [2] 0.184 | [8] -0.051 | [18] -0.199 | [13] 0.13 | [3] -0.113 | [10] -0.498

SH3BGR (UniProt P55822)
inactive: [16] 0.058 | [12] 0.023 | [17] 0.036 | [1] 0.036 | [2] 0.041 | [8] 0.078 | [9] -0.102 | [18] -0.068 | [19] 0.167 | [13] -0.369 | [3] -0.014 | [4] -0.05 | [10] 0.118 | [11] 0.038 | [5] 0.142

SIGIRR (UniProt H0YDR5)
inactive: [7] 0.011 | [2] -0.14 | [9] 0.111 | [3] -0.095 | [4] -0.022 | [5] -0.136

SESN1 isoform 2 (UniProt Q9Y6P5)
inactive: [7] 0.105

SERAC1 (UniProt Q96JX3)
inactive: [1] -0.015 | [2] 0.153 | [9] -0.033 | [19] 0.002 | [3] -0.147

SERPINB6, A0A2R8Y7E5
inactive: [7] 0.021 | [12] 0.073 | [14] 0.103 | [1] 0.074 | [8] 0.384 | [13] 0.037 | [15] 0.055 | [10] -0.021

SECISBP2L (UniProt Q93073)
inactive: [14] 0.182 | [15] -0.018

SIK2 (UniProt Q9H0K1)
inactive: [6] 0.372 | [16] 0.01 | [17] -0.021 | [1] -0.262 | [2] 0.521 | [8] 0.028 | [9] 0.47 | [18] -0.117 | [3] -0.151 | [10] -0.192

SGSH (UniProt P51688)
inactive: [2] -0.478 | [19] 0.28 | [3] -0.129

SH2D3A (UniProt Q9BRG2)
inactive: [6] 0.051 | [7] 0.103 | [14] -0.254 | [2] 0.14 | [19] 0.036 | [3] -0.196 | [15] -0.074

SHROOM4 (UniProt Q9ULL8)
inactive: [16] -0.653 | [14] -0.174 | [17] -0.188 | [1] 0.101 | [18] 0.05 | [4] 0.077 | [15] -0.148 | [11] 0.17 | [5] 0.415

SFXN1 (UniProt D6RDG7)
inactive: [1] -0.078

SECISBP2 (UniProt Q96T21)
inactive: [6] 0.231 | [1] -0.35 | [19] -0.443 | [4] 0.116 | [5] -0.195

SELENOM (UniProt Q8WWX9)
inactive: [12] 0.018 | [2] -0.084 | [19] 0.166 | [13] 0.056 | [3] 0.011

SIMC1 (UniProt Q8NDZ2)
inactive: [2] 0.401 | [3] -0.06

SERPING1 isoform 3 (UniProt P05155)
inactive: [2] 0.008 | [9] 0.03 | [3] -0.248 | [11] 0.331

SEPTIN2 (UniProt B5MCX3)
inactive: [6] 0.045 | [14] -0.106 | [9] 0.094 | [15] -0.141

SKA2 (UniProt Q8WVK7)
inactive: [6] 0.088 | [4] 0.053 | [5] 0.082

SENP8 (UniProt Q96LD8)
inactive: [7] 0.279 | [19] 0.056

SERPIND1 (UniProt P05546)
inactive: [7] 0.029 | [12] 0.378 | [1] -0.296 | [2] -0.197 | [19] 0.161 | [13] -0.482 | [3] 0.052 | [4] 0.143 | [5] 0.306

SERPINB7 (UniProt O75635)
inactive: [14] -0.01 | [1] -0.045 | [8] 0.162 | [9] 0.073 | [4] -0.028 | [15] 0.031 | [10] 0.158 | [11] 0.501 | [5] -0.012

SEMG1 (UniProt P04279)
inactive: [1] -0.089

SHARPIN (UniProt Q9H0F6)
inactive: [19] -0.062

Looked up one by one from above (2):
SERPIND1 (UniProt P05546)
inactive: [7] 0.029 | [12] 0.378 | [1] -0.296 | [2] -0.197 | [19] 0.161 | [13] -0.482 | [3] 0.052 | [4] 0.143 | [5] 0.306

SEMG1 (UniProt P04279)
inactive: [1] -0.089
